SMILES strings stand for the structures. The list shows a part of the results. Shown are side measurements of this screen, not its main read-out; they come without a call. Most of these compounds were active or inconclusive in the main read-out, so they are no random draw. Potencies come from curve fits of mixed quality, noted in brackets.

This assay is described as follows: qHTS Assay for Lipid Storage Modulators in Drosophila S3 Cells.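 For cell number change: cells counted by Cell Tracker Red CMTPX staining in the red channel.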 The conditions noted are these: BODIPY lipid droplet fluorescence, 18-24 h; for cell number change: measured here: cell count max response, cells fed with added oleic acid. The method, boiled down:
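Laser-scanning cytometry quantifies lipid droplet accumulation (500–530 nm total intensity; droplet/cell object ratio) in oleic acid-fed (400 uM added) Drosophila S3 cells treated with a concentration series. 20 uM Triacsin C defined 100% inhibition.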

[1] abbreviates: measured here: cell number channel AC50, cells fed with added oleic acid.
Where [2] appears, read: measured here: lipid fluorescence (Fed channel) AC50, cells fed with added oleic acid.

A word on the AC50: it is the concentration giving half of the maximal activity seen. A lower AC50 goes with greater potency. Take `O=C(Nc1nccs1)C(c1ccccc1)N1CCCCC1` (centres undefined): the cell number change stood at 24.9%. For the same compound, the AC50 under setting [1] was 820 nM [rising, partial curve, poor fit]. The concentration at half-maximal activity (AC50) under setting [2] is 820 nM [rising, partial curve, poor fit].
As to `COc1ccc(-n2c(=S)[nH]c3cc(C(=O)NCc4cccnc4)ccc3c2=O)c(OC)c1`, the cell number change came to 14.5%. Moreover, the half-maximal activity concentration (AC50) under setting [2] was 1300 nM [rising, full curve].
Turning to `CCCC(=O)Nc1cc(S(=O)(=O)N2CCCCC2)ccc1N1CCOCC1`, the cell number change is -1.2%. Further, the AC50 under setting [2] is 6510 nM [rising, single point].
Turning to `COc1ccc(-c2csc(-c3ccc(C(=O)O)cc3)n2)cc1`, the cell number change was -21.6%.
Turning to `Cc1cccn2c(=O)c3cc(C(=O)NC4CCS(=O)(=O)C4)n(Cc4ccccc4)c3nc12` (centres undefined), the cell number change came to 237%. Further, the AC50 under setting [1] is 29100 nM [rising, single point]. Besides, the AC50 under setting [2] was 29100 nM [rising, single point].
As for `Cc1ccc(C2C(C#N)=C(N)Oc3cc4c(cc32)OCO4)cc1` (centres undefined), the AC50 is 6510 nM [rising, single point] under setting [1] and 6510 nM [rising, single point] under setting [2].
For the compound `O=C(NCCCN1CCOCC1)NC12CC3CC(CC(C3)C1)C2`, the cell number change was 5.91%. In addition, under setting [2], the AC50 was 231 nM [rising, full curve, poor fit].
On to `CCOC(=O)C1CCCN(Cc2nc3ccc([N+](=O)[O-])cc3c(=O)n2-c2ccc(OC)cc2OC)C1` (centres undefined), for which the cell number change is -12.9%. For the same compound, under setting [1], the AC50 was 6510 nM [rising, partial curve, poor fit]. The AC50 under setting [2] is 6510 nM [rising, partial curve, poor fit].
Consider `COc1ccc2[nH]c(C(=O)NCCCN3CCCC3=O)c(C)c2c1`, for which the cell number change amounted to 1.98%. The AC50 under setting [2] was 116 nM [falling, single point].
Take `Cc1c(Nc2nc(-c3cccc([N+](=O)[O-])c3)cs2)c(=O)n(-c2ccccc2)n1C`: the cell number change was found to be 4.77%. Under setting [2], the half-maximal activity concentration (AC50) is 9200 nM [rising, partial curve, poor fit].
As for `CCN(CC)CC(=O)N(CC(=O)Nc1c(C)cc(C)cc1C)C1CCCCC1`, the cell number change was -14.4%. Besides, the AC50 under setting [2] is 2590 nM [rising, single point].
As for `COc1ccc(C#Cc2ccc3c(=O)c4ccccc4n(C)c3c2)cc1`, the cell number change is 19.7%. The AC50 under setting [2] was 130 nM [falling, full curve, poor fit].
On to `O=C(/C=C/c1cccc(Cl)c1)OCc1cn2cc(Cl)ccc2n1`, for which the cell number change amounted to 51.4%. Further, the half-maximal activity concentration (AC50) under setting [1] is 6510 nM [falling, single point]. The AC50 under setting [2] was 6510 nM [falling, single point].
In the case of `O=[N+]([O-])c1ccc(S(=O)(=O)NCC(c2ccco2)N2CCc3ccccc3C2)cc1` (centres undefined), the cell number change came out at 21.4%. Besides, the half-maximal activity concentration (AC50) under setting [2] is 7310 nM [rising, partial curve, poor fit].
For the compound `CCS(=O)(=O)Nc1ccc2c(c1)OCO2`, the cell number change is -19.6%. Besides, the half-maximal activity concentration (AC50) under setting [2] is 517 nM [falling, full curve].
As to `CCCN(CC1CC1)C(=O)COC(=O)c1oc2c(F)cccc2c1C`, under setting [2], the AC50 is 731 nM [falling, full curve].
Take `O=C(CCc1nc(-c2ccccc2F)no1)NCCc1ccccc1Cl`: the cell number change was -24.2%.
As for `CC(C)NC(=O)c1ccccc1N(Cc1ccccc1)S(C)(=O)=O`, the cell number change is -11.9%.
Regarding `COC(=O)c1ccc(Cl)c(NC(C)=O)c1`, the cell number change was -19.3%. Further, the AC50 under setting [1] was 651 nM [falling, full curve, poor fit]. Also, the concentration at half-maximal activity (AC50) under setting [2] is 29100 nM [rising, single point].
For `COc1ccccc1C(=O)Nc1ccc(Cc2ccncc2)cc1`, the cell number change was found to be 2.14%. Also, the AC50 under setting [1] was 920 nM [rising, partial curve]. For the same compound, the AC50 under setting [2] is 411 nM [falling, full curve].
For the compound `Cc1sc(NC(=O)CSc2nc(N)cc(N)n2)c(C#N)c1C`, the cell number change is 13%. Besides, the concentration at half-maximal activity (AC50) under setting [2] is 36.6 nM [rising, full curve].
Regarding `CCC[C@@H]1CCCC/C=C\CCCC(=O)OCCN1C(=O)OC(C)(C)C`, the cell number change was 9.25%. For the same compound, the half-maximal activity concentration (AC50) under setting [1] was 1160 nM [falling, single point]. For the same compound, under setting [2], the AC50 is 5.17 nM [falling, full curve, poor fit].
`COC(=O)C1CCN(C(=O)Cc2ccc(Br)cc2)CC1`: the cell number change was -34.6%. For the same compound, the AC50 under setting [2] was 580 nM [falling, single point].
As to `COc1ccc(NC(=S)NC2CC3CCCC(C2)N3C2CC2)cc1` (centres undefined), the cell number change was -48.4%. Further, the AC50 under setting [1] was 29100 nM [falling, single point]. The AC50 under setting [2] was 2590 nM [rising, single point].
For the compound `COc1ccc(-c2oc(=O)c3cc(OC)c(OC)cc3c2-c2cc(F)cc(OC)c2)cc1`, the cell number change is -25.9%. Further, under setting [1], the AC50 was 146 nM [falling, full curve, poor fit].
With `O=[N+]([O-])c1ccc(CN2CCN(c3ccc(F)cc3)CC2)o1`, the cell number change is -5.96%. Moreover, the AC50 under setting [2] was 580 nM [falling, single point].
Take `CCOC(=O)c1c(-c2ccccc2)oc2ccc(OC(C)C(=O)O)cc12` (centres undefined): the cell number change was -8%. For the same compound, the AC50 under setting [1] was 184 nM [falling, full curve, poor fit].
Consider `COC(=O)c1ccc2c(c1)C(C)(C)C(/C=C/c1ccc(O)cc1)=[N+]2C`, for which the concentration at half-maximal activity (AC50) under setting [2] is 9200 nM [falling, partial curve, poor fit].
Regarding `CC1(C)C2CCC1(C)C(NC(=O)CCN1CCCCC1)C2` (centres undefined), the cell number change was -15.1%. Besides, under setting [2], the AC50 is 461 nM [rising, partial curve, poor fit].
With `CCOC(=O)CNC(=O)c1cc(OC)cc(OC)c1`, the cell number change worked out at 19.8%. Further, the half-maximal activity concentration (AC50) under setting [1] was 3260 nM [rising, single point]. Further, the AC50 under setting [2] was 5.17 nM [rising, full curve, poor fit].
As for `COc1ccc(C(c2nnnn2C2CCCC2)N2CCC(C)CC2)cc1` (centres undefined), the cell number change stood at 24.1%. Moreover, the AC50 under setting [2] is 4110 nM [falling, partial curve, poor fit].
Consider `CCc1ccccc1NS(=O)(=O)c1cc2c(cc1C)n(C)c(=O)c(=O)n2C`, for which the cell number change was -33.1%. Besides, the half-maximal activity concentration (AC50) under setting [1] is 25900 nM [falling, single point]. Besides, under setting [2], the AC50 was 1840 nM [falling, partial curve, poor fit].
In the case of `COc1ccc(NC(=O)/C(C#N)=C\c2cc(C)n(-c3ccc4c(c3)OCO4)c2C)cc1`, the cell number change is -6.02%. Moreover, the AC50 under setting [1] was 651 nM [rising, single point]. In addition, the AC50 under setting [2] was 731 nM [rising, partial curve, poor fit].
Regarding `COc1ccc(NC(=O)CN2CCN(C(=O)C3CCCO3)CC2)c(OC)c1` (centres undefined), the cell number change was -14.6%. In addition, the AC50 under setting [2] is 1840 nM [rising, partial curve].

For the origin of these results see PubChem BioAssay AID2685 (National Center for Advancing Translational Sciences (NCATS), 2010).
